Results deposited as PubChem BioAssay AID1259405 (NCATS, 2018).

- Screen: 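Mouse-designed siRNAs used to find CHO productivity engineering targets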 (primary screen)
- Cells: Chinese hamster CHO-K1 ovary cells with stable secreted eGFP expression
- Reagent: single siRNA against mouse genes, 0.8 pmol siRNA per well (2 µl of 400 nM stock)
- Duration: 3 days
- Measured: 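Percent of the per-plate non-targeting control median for intracellular GFP per well by laser scanning cytometry and for cell viability by ATP luminescence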
- Scale: GFP, % of control: higher = more GFP per well, higher productivity; viability (ATP), % of control: higher = more viable cells (more ATP)
- Active means: 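Called active when intracellular GFP, relative to negative control, is at or above 120%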
The deposit covers about 50,000 reagents; shown is an unselected part. Over the whole deposit, about 4,000 (8%) are marked active. 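Mouse siRNA library applied to hamster cells; one well for each siRNA.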 Reagents against one gene are numbered here. No sequences are given here.

The first 2 entries, to show the layout:
no.	target	reagent	GFP, % of control	viability (ATP), % of control	outcome
1	2310011J03Rik	1	175	62.2	active
2	2310011J03Rik	2	74.5	48.6	inactive

Main list, from the start:
no.	target	reagent	GFP, % of control	viability (ATP), % of control	outcome
1	2310011J03Rik	1	175	62.2	active
2	2310011J03Rik	2	74.5	48.6	inactive
3	2310011J03Rik	3	77.7	64	inactive
4	Or6c215	1	126	84.6	active
5	Or6c215	2	54.3	60	inactive
6	Or6c215	3	66.7	70.6	inactive
7	Prrg2	1	65	57.6	inactive
8	Prrg2	2	61.4	80.8	inactive
9	Prrg2	3	45.4	63.2	inactive
10	Slc5a11	1	71.4	66.8	inactive
11	Slc5a11	2	119	94.7	inactive
12	Slc5a11	3	55.5	63.4	inactive
13	Epdr1	1	119	75	inactive
14	Epdr1	2	73.8	64.8	inactive
15	Epdr1	3	79.9	104	inactive
16	Epdr1	4	81	86.6	inactive
17	Epdr1	5	78.5	103	inactive
18	Skp1	1	35.7	31.3	inactive
19	Skp1	2	50.6	27.2	inactive
20	Skp1	3	66.7	51.7	inactive
21	Hgfac	1	114	64.2	inactive
22	Hgfac	2	48.3	60.6	inactive
23	Hgfac	3	68.2	46.7	inactive
24	Il24	1	99.1	127	inactive
25	Il24	2	102	72	inactive
26	Clec7a	1	98.1	83	inactive
27	Clec7a	2	116	90.5	inactive
28	Clec7a	3	98.8	92.9	inactive
29	Snap23	1	77.8	70.4	inactive
30	Snap23	2	76.6	57.2	inactive
31	Cnpy4	1	98.5	68.4	inactive
32	Cnpy4	2	73.7	82.9	inactive
33	Cnpy4	3	88.4	82.5	inactive
34	Robo1	1	68.7	87.7	inactive
35	Robo1	2	76.4	93.1	inactive
36	Robo1	3	42.1	60.1	inactive
37	Or55b4	1	82.7	54	inactive
38	Or55b4	2	81	87.6	inactive
39	Or55b4	3	63.2	80.1	inactive
40	Cchcr1	1	75.7	87.6	inactive
41	Cchcr1	2	54.1	52.1	inactive
42	Cchcr1	3	86.8	49.4	inactive
43	Mpst	1	28.4	30.1	inactive
44	Mpst	2	92.2	96.5	inactive
45	Mpst	3	71.2	73	inactive
46	Sumf2	1	217	105	active
47	Sumf2	2	76.5	108	inactive
48	Sumf2	3	147	112	active
49	Gpr37l1	1	100	88.3	inactive
50	Gpr37l1	2	83.8	69.5	inactive
51	Gpr37l1	3	78.1	80	inactive
52	Tdrp	1	50.7	86.5	inactive
53	Tdrp	2	82	59.6	inactive
54	Tdrp	3	79.2	100	inactive
55	Spast	1	64.1	72.9	inactive
56	Spast	2	64.3	76.8	inactive
57	Baz2a	1	109	112	inactive
58	Baz2a	2	135	118	active
59	Baz2a	3	122	96.5	active
60	Ucn	1	107	64.4	inactive
61	Ucn	2	19.6	27.5	inactive
62	Ucn	3	95.1	106	inactive
63	Nans	1	100	69.4	inactive
64	Nans	2	66.5	63	inactive
65	Nans	3	52.9	39.2	inactive
66	Or12j3	1	48.3	23.8	inactive
67	Or12j3	2	68	81	inactive
68	Or12j3	3	106	117	inactive
69	Cad	1	101	98.8	inactive
70	Cad	2	91.4	95.1	inactive
71	Cad	3	79	62.5	inactive
72	Pdk1	1	73.2	67.1	inactive
73	Wfdc6b	1	65.1	39.2	inactive
74	Wfdc6b	2	90.5	71.3	inactive
75	Wfdc6b	3	91.6	101	inactive
76	Ldlrad3	1	81.2	43.8	inactive
77	Ldlrad3	2	68.3	68.2	inactive
78	Ldlrad3	3	114	89.2	inactive
79	Ltb4r2	1	24	37.4	inactive
80	Ltb4r2	2	52.5	67.5	inactive
81	Ltb4r2	3	61.6	75	inactive
82	Barhl1	1	46	35.2	inactive
83	Barhl1	2	90.1	84.9	inactive
84	Barhl1	3	56.3	76.6	inactive
